# Measured values from PubChem BioAssay AID493014 (National Center for Advancing Translational Sciences (NCATS), 2011).
# Values joined by “and” are separate entries in the source; they are usually repeats but may differ in a detail not shown here. Equal values may be shown once. Some of the results follow. These are further read-outs of the screen, such as a control signal, another cell line or another target. No call is given for them. The list favours compounds with an active or inconclusive main result. Words in brackets tell the shape of the fitted curve; partial curves, single points and poor fits give uncertain potencies.
# Assay: qHTS Assay to Find Inhibitors of Chronic Active B-Cell Receptor Signaling
# Conditions: ABC-DLBCL IkBa-CBG/CBR reporter, luminescence ratio (green luciferase fused to IkBa over red control in TMD8 lymphoma cells), 4 h
# How it was run: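 Doxycycline induced both beetle luciferases in TMD8 lymphoma cells; IKK-driven degradation limits the IkappaBalpha-fused green signal, while red luminescence normalises for cell number and nonspecific effects. Compounds tested up to 46 uM, 4 hrs.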
# [1] = measured here: CBR red luminescence, cell number
# [2] = measured here: IkBa-CBG green luminescence
SMILES,AC50 [1],AC50 [2]
N#Cc1ccc(OCC(=O)NCCN2CCOCC2)cc1,"25.9 µM [rising, single point]",–
COC(=O)c1sc(OC)cc1OCc1ccc(C)cc1,"29.1 µM [rising, single point]",–
Cc1ccc(OCc2ccc(C(=O)Nc3nccs3)o2)cc1C,"3.55 µM [falling, partial curve, poor fit]",–
Cc1c(CCNC(=O)c2ccc(Br)o2)sc2nc(-c3ccc(F)cc3)nn12,"14.1 µM [falling, single point]",–
COc1cccc(OC)c1C(=O)N1CCN(C(=O)c2ccc(-c3ccccc3)cc2)CC1,"0.398 µM [falling, full curve, poor fit]",–
S=c1[nH]nc(C2CCCCC2)n1/N=C/c1cccc(Cl)c1Cl,"35.5 µM [rising, single point]",–
O=C(Cn1c(=O)c2cccn2c2ccccc21)NCCc1ccccc1,"8.91 µM [rising, partial curve, poor fit]",–
O=c1c2cc3ccccc3n2cnn1Cc1ccccc1F,"10.3 µM [rising, partial curve]","23.1 µM [falling, single point]"
COc1ccc(/C=C2/C(=O)ON=C2c2ccccc2)cc1OC,"11.2 µM [rising, single point]",–
COC(=O)c1ccc(-c2nc3ccccc3[nH]2)cc1,"9.2 µM [falling, partial curve]",–
COc1ccc(-n2c(SCC(=O)Nc3ccc(C(N)=O)cc3)nc3c([nH]c4ccccc43)c2=O)cc1OC,"31.6 µM [rising, single point]","17.8 µM [falling, single point]"
CC(=O)c1ccc(/C=C/c2nc3ccccc3n2C)o1,"35.5 µM [falling, single point]",–
Cc1ccc(C(=O)O)cc1N1C(=O)c2cccc3c([N+](=O)[O-])ccc(c23)C1=O,"22.4 µM [falling, single point]",–
COc1cc(OC)c(/C=C2\C(=O)Nc3ccccc32)c(OC)c1,"29.1 µM [falling, single point]","20.6 µM [falling, partial curve]"
O=C1CCCCC1C(=O)c1ccccc1 (stereo not drawn),"3.55 µM [falling, single point]",–
CCOc1ccccc1CNc1ncnc2ccc(-c3c(C)noc3C)cc12,"20.6 µM [falling, partial curve, poor fit] and 29.1 µM [falling, single point]",–
C[C@H]1CN([C@@H](C)CO)C(=O)c2cccc(NC(=O)Nc3ccc(C(F)(F)F)cc3)c2O[C@@H]1CN(C)C(=O)Nc1ccc(F)cc1,"29.1 µM [falling, single point]",–
COc1ccc2cc(C=O)n(C)c2c1,"3.26 µM [rising, full curve]",–
Cc1cc2cc(CNC(=O)Nc3ccccc3)ccc2n1C,"16.4 µM [rising, partial curve, poor fit]",–
CCOCCCNC(=S)N(CCN(C)C)Cc1cc2cc3c(cc2[nH]c1=O)OCCO3,"4.47 µM [falling, partial curve, poor fit]",–

SMILES,AC50 [1],AC50 [2]
COc1ccc(-c2cnnn2-c2ccc(NC(=O)c3ccc(S(=O)(=O)N4CCCCC4)cc3)cc2)cc1,"18.4 µM [rising, partial curve, poor fit]",–
Cc1cc(C)cc(NC(=S)N(CCCN2CCN(C)CC2)Cc2cccs2)c1,"20 µM [falling, partial curve, poor fit]",–
Cc1ccc(/C=C2/SC(=S)N(CCC(=O)NCCCN3CCOCC3)C2=O)cc1,"14.1 µM [falling, single point]",–
Cc1cccc(N(CC(=O)NC2CCCCC2)C(=O)Cn2nnc(-c3ccc(C)o3)n2)c1,"5.01 µM [falling, partial curve, poor fit]",–
COc1cc(S(=O)(=O)N2CCN(Cc3ccc4c(c3)OCO4)CC2)c(C)cc1C,"16.4 µM [falling, single point]",–
COc1cccc(N2C(=O)CC(Sc3nc(C)cc(C)n3)C2=O)c1 (stereo not drawn),"35.5 µM [rising, single point]",–
CCOc1ccc(CN(C)C(=O)c2cc3ccccc3o2)cc1OC,"0.316 µM [rising, full curve, poor fit]",–
Nc1ccc2c(c1)C(=O)N(CC1CCCO1)C2=O (stereo not drawn),"0.13 µM [falling, full curve, poor fit]",–
Cc1ccc(SCC(=O)N2CCCC2)cc1,"6.31 µM [rising, partial curve]",–
Cc1ccc(S(=O)(=O)C(C#N)c2nc3ccccc3nc2N2CCCC2)cc1 (stereo not drawn),"5.8 µM [falling, full curve, poor fit]",–
CCc1ccc(N=CC2=C(O)CC(c3ccco3)CC2=O)cc1 (stereo not drawn),"4.61 µM [rising, single point]",–
CC(=O)[C@H]1CC[C@H]2[C@@H]3C=CC4=CC(=O)CC[C@@]4(C)[C@@H]3CC[C@]12C,"10.3 µM [rising, partial curve, poor fit]",–
COc1ccc(C(=O)C2CCCN(C(=O)c3cccnc3SC)C2)c(C)c1 (stereo not drawn),"0.794 µM [rising, full curve, poor fit]",–
N/C(=N\OC(=O)Cc1ccccc1)c1ccc(Br)cc1,"2.06 µM [rising, partial curve]",–
Cc1ccc2nc(-c3ccccc3)cn2c1,"7.08 µM [falling, partial curve]",–
COC(=O)C1C(O)=C(C=Nc2cccc3ccccc23)C(=O)CC1(C)C (stereo not drawn),"35.5 µM [falling, partial curve, poor fit]","20 µM [falling, partial curve, poor fit]"
O=C(Nc1ccc(F)cc1)c1sc(Cl)nc1-c1ccccc1,"23.1 µM [falling, partial curve, poor fit]",–
COc1ccc(C(=O)OCCc2ccc(O)cc2)cc1,"23.1 µM [rising, partial curve, poor fit]",–
CCCC(=O)N1CCN(c2nc3ccc(Cl)cc3s2)CC1,"5.62 µM [rising, full curve, poor fit]",–

# Some of these compounds in order of molecular weight, low to high:
SMILES,AC50 [1],AC50 [2]
N#Cc1ccc(OCC(=O)NCCN2CCOCC2)cc1,"25.9 µM [rising, single point]",–
Cc1cc2cc(CNC(=O)Nc3ccccc3)ccc2n1C,"16.4 µM [rising, partial curve, poor fit]",–
CCOCCCNC(=S)N(CCN(C)C)Cc1cc2cc3c(cc2[nH]c1=O)OCCO3,"4.47 µM [falling, partial curve, poor fit]",–
